In paper doi:10.1101/2020.06.08.140590 one finds binding data, which are given here for two molecules.

Assay [1] concerns the target HA-Ago1 (FLAG/HA-tagged Argonaute 1) (human) (UniProt Q9UL18). Briefly: co-IP.
Assay [2] has as its target HA-Ago2 (FLAG/HA-tagged Argonaute 2) (human), Q9UKV8. Put plainly: co-IP. Conditions: remark: other sources report otherwise.

No constants are given. Whether binding was seen depends on the method and setting. In cells and extracts the contact can be indirect. Some entries that bind do so weakly or less than the wild type.

B1: TRBP (TAR RNA binding protein), endogenous (protein, UniProt Q15633 1-366)
chain: MSEEEQGSGTTTGCGLPSIEQMLAANPGKTPISLLQEYGTRIGKTPVYDLLKAEGQAHQPNFTFRVTVGDTSCTGQGPSKKAAKHKAAEVALKHLKGGSMLEPALEDSSSFSPLDSSLPEDIPVFTAAAAATPVPSVVLTRSPPMELQPPVSPQQSECNPVGALQELVVQKGWRLPEYTVTQESGPAHRKEFTMTCRVERFIEIGSGTSKKLAKRNAAAKMLLRVHTVPLDARDGNEVEPDDDHFSIGVGSRLDGLRNRGPGCTWDSLRNSVGEKILSLRSCSLGSLGALGPACCRVLSELSEEQAFHVSYLDIEELSLSGLCQCLVELSTQPATVCHGSATTREAARGEAARRALQYLKIMAGSK
As to B1, the binding result in assay [1] was “binds”.

B2: TRBP (TAR RNA binding protein), endogenous, Q15633 1-366 (protein)
chain: MSEEEQGSGTTTGCGLPSIEQMLAANPGKTPISLLQEYGTRIGKTPVYDLLKAEGQAHQPNFTFRVTVGDTSCTGQGPSKKAAKHKAAEVALKHLKGGSMLEPALEDSSSFSPLDSSLPEDIPVFTAAAAATPVPSVVLTRSPPMELQPPVSPQQSECNPVGALQELVVQKGWRLPEYTVTQESGPAHRKEFTMTCRVERFIEIGSGTSKKLAKRNAAAKMLLRVHTVPLDARDGNEVEPDDDHFSIGVGSRLDGLRNRGPGCTWDSLRNSVGEKILSLRSCSLGSLGALGPACCRVLSELSEEQAFHVSYLDIEELSLSGLCQCLVELSTQPATVCHGSATTREAARGEAARRALQYLKIMAGSK
As for B2, in assay [2], the binding entry is given as “binds”.
